Laboratory results published in publication PMC11234452, “HydrogelFinder: A Foundation Model for Efficient Self‐Assembling Peptide Discovery Guided by Non‐Peptidal Small Molecules” (Advanced Science, 2024).

What was measured:
[1] = test system: human dermal fibroblasts (NHDF); conditions: NHDF cells, MTT, 0.1–500 µM peptide, 24 h (legend; method says 48 h), n = 3
[2] = test system: stem cells from human exfoliated deciduous teeth (SHED); conditions: MTT, 0.1–500 µM peptide, 24 h (legend; method says 48 h), n = 3
SHED cells = SHED cells grown on the surface of hydrogel (1.0 wt%) for 24 h; calcein AM / PI staining
[3] = Hydrogelation test, inverted tube method; format: physicochemical; conditions: buffer 1X PBS, 37 °C overnight
Method: We subsequently evaluated their gelation capability (Figure S2, Supporting Information). After purification by HPLC, the obtained compounds were dissolved in water and the pH of the solution was adjusted to trigger self‐assembly and hydrogelation.
Observing gel behavior in an inverted test tube is a rapid and facile approach to determine whether a dissolved peptide formed a gel.
All compounds were placed in a glass tube (diameter 10 mm) and first dissolved in D.I water, sonicated for 5 min and putted on ice for 30 min. Then added 2x PBS buffer (5.4 mM KCl, 20 mM Na2HPO4, 4 mM KH2PO4) or D.I water to reach the final concentration of 1.0 wt%. pH was adjusted with NaOH or HCl. The solutions were stored in 37 °C incubator overnight. Gelation was confirmed by the inverting method.

[4] = Oscillatory rheology, dynamic time sweep; format: physicochemical; conditions: 37 °C, 15 mm parallel geometry, gap 0.5 mm, G′ consistently higher than G″
Method: To further explore the gelation properties and self‐assembly behavior of the candidate self‐assembling molecules, we carried out a series of biophysical characterization experiments.
All rheological experiments were performed on an Anton Parr equipped with a steel 15 mm parallel geometry tool. […] To avoid dehydration, a layer of silicon oil was applied around the edge of the sample at the start of the measurement. Dynamic strain sweep experiments were performed to ensure that the time‐sweep data was collected in the linear regime of strain. The dynamic strain sweep was performed varying the strain from 0.1 to 100% at a constant frequency (6 rad s^−1).

[5] = TEM of hydrogel matrix, nanofiber width; format: physicochemical; conditions: uranyl formate stain, ImageJ, 30 measurements per picture
Method: These nanofibers were entangled with one another, forming a 3D‐network that comprised the hydrogel matrix (Figure 4B).
The sample was prepared by placing a drop of peptide solution on a 200‐mesh copper grid (Electron Microscopy China) and allowed to stand for 1.0 min, then blotted with filter paper. Subsequently a drop of 1.0% Uranyl Formate was placed on the grid and allowed to stand for 1–2 min, then blotted with a piece of filter paper and left to air dry. Images were taken with a JEOL JEM‐2100Plus at 80 kV accelerating voltage. By calculating the width of peptide, The image J was used to measure 30 times for 1 TEM picture, and to gather statistics with frequency.^[ [26] ^]

| SMILES | IC50 [1] [µM] | IC50 [2] [µM] | biocompatibility in live/dead assay (SHED cells) | pH (of hydrogelation) [3] | Conc. (hydrogelation concentration) ([3]; pH adjusted with NaOH or HCl) [wt%] | storage modulus (G′) at equilibrium [4] | nanofiber width [5] |
| --- | --- | --- | --- | --- | --- | --- | --- |
| NC(=O)[C@H](Cc1ccccc1)NC(=O)[C@H](CC(=O)O)NC(=O)CNC(=O)[C@H](CCC(=O)O)NC(=O)[C@H](Cc1ccccc1)NC(=O)[C@H](CCC(=O)O)NC(=O)[C@@H](N)Cc1c[nH]c2ccccc12 [compound 16] | > 500 | > 500 | high biocompatibility | – | – | – | – |
| CC(C)C[C@H](NC(=O)[C@H](CC(C)C)NC(=O)[C@H](CCCCN)NC(=O)[C@H](CC(C)C)NC(=O)[C@H](CCCNC(=N)N)NC(=O)[C@H](CC(C)C)NC(=O)[C@H](CCCNC(=N)N)NC(=O)[C@@H](N)C(C)C)C(=O)O [compound 62] | > 500 | > 500 | high biocompatibility | 8.0 | 1.0 | 2,143 Pa | approximately 14 nm |
